Results reported in the supplement of paper PMC6411743.
± gives the standard deviation of the averaged measurements. The list shows a part of the results.

By UniProt entry, the sequences of proteins in these tests, tags left out. Where a name states a change or a piece, a line headed by the entry shows the natural chain unless it says otherwise.
UniProt Q9P0W2: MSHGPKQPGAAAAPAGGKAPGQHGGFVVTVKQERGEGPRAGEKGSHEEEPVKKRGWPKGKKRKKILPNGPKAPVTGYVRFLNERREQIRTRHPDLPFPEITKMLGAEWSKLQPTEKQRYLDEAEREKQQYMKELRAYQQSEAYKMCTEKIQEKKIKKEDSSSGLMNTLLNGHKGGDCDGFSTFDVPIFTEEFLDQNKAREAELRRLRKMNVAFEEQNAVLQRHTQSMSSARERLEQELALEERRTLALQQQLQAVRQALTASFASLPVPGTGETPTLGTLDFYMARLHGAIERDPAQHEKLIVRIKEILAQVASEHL
UniProt Q16563: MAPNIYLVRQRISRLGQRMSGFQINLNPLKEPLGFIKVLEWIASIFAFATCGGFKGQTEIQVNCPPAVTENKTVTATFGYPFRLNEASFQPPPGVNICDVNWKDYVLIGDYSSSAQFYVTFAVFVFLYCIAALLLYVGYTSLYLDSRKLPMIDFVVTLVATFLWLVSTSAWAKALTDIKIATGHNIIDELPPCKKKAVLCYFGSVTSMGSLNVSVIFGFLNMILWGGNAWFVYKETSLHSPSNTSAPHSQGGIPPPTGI
UniProt Q6P087: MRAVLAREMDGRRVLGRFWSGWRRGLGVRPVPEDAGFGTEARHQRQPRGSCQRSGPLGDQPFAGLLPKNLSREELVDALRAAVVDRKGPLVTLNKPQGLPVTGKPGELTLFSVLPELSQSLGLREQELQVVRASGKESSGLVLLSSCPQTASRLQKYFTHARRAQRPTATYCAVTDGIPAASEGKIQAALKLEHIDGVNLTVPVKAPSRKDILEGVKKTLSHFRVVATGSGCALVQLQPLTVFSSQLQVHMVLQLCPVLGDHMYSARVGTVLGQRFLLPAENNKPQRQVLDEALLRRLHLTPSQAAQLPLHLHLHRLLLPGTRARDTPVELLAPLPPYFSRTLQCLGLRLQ
UniProt P78317: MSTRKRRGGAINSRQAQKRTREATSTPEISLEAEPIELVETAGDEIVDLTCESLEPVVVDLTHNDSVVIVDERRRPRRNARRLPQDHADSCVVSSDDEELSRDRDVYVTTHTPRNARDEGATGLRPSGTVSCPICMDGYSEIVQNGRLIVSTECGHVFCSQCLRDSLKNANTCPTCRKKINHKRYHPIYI
UniProt Q5JSL3: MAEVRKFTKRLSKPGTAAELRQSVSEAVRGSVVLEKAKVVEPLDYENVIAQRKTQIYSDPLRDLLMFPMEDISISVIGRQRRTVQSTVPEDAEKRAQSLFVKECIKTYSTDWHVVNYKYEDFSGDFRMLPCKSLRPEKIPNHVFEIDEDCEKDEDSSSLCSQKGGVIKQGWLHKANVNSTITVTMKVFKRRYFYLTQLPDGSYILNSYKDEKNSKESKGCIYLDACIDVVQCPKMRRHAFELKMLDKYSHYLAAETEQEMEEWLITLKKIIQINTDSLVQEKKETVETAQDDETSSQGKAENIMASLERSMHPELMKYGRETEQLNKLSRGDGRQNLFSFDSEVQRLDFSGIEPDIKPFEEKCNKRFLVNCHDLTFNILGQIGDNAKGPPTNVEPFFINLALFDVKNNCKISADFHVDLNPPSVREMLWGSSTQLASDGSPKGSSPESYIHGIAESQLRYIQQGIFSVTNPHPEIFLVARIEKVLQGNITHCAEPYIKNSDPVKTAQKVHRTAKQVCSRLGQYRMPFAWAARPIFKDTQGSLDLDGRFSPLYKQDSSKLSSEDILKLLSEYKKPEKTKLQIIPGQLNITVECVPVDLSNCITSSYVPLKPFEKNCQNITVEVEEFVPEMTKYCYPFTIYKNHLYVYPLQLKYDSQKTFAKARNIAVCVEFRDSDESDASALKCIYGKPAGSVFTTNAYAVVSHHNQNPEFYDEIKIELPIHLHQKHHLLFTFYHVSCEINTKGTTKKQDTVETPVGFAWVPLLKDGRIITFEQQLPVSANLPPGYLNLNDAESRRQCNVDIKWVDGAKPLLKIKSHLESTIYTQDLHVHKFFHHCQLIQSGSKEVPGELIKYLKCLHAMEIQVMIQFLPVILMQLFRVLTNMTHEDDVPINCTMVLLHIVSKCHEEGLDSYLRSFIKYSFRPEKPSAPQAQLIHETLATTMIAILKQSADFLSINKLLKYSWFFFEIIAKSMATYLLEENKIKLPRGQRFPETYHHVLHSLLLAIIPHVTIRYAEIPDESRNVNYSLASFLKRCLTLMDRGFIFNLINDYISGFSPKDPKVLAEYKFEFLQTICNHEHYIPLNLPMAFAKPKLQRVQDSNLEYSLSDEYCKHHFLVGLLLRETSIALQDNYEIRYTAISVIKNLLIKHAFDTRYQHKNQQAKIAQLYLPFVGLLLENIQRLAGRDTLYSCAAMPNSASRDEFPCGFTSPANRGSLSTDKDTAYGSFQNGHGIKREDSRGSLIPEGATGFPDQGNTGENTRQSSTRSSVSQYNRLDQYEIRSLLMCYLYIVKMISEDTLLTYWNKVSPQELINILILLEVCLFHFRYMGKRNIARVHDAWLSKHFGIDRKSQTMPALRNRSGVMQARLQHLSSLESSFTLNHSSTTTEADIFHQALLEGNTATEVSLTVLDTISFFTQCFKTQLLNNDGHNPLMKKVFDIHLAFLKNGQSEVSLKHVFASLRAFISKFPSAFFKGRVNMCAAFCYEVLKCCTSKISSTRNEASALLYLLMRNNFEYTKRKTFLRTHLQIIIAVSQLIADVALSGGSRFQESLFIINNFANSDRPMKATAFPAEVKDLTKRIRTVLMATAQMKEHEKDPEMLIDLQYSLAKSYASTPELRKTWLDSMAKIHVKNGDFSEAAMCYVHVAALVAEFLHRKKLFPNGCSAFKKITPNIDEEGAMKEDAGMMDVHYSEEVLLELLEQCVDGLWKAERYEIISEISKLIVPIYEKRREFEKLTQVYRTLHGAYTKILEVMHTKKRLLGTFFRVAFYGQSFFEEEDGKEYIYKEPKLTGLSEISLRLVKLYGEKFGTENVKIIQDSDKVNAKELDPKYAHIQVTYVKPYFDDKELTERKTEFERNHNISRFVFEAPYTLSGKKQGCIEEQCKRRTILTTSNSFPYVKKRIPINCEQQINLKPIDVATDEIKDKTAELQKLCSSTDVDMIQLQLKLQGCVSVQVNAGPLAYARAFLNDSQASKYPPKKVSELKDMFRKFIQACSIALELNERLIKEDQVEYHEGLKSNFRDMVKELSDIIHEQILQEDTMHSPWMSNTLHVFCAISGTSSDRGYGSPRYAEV
UniProt P55854, whole entry: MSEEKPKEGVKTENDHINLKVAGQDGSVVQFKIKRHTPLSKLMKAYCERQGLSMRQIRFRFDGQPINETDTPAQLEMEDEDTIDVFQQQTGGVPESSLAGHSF
UniProt Q8IZL8: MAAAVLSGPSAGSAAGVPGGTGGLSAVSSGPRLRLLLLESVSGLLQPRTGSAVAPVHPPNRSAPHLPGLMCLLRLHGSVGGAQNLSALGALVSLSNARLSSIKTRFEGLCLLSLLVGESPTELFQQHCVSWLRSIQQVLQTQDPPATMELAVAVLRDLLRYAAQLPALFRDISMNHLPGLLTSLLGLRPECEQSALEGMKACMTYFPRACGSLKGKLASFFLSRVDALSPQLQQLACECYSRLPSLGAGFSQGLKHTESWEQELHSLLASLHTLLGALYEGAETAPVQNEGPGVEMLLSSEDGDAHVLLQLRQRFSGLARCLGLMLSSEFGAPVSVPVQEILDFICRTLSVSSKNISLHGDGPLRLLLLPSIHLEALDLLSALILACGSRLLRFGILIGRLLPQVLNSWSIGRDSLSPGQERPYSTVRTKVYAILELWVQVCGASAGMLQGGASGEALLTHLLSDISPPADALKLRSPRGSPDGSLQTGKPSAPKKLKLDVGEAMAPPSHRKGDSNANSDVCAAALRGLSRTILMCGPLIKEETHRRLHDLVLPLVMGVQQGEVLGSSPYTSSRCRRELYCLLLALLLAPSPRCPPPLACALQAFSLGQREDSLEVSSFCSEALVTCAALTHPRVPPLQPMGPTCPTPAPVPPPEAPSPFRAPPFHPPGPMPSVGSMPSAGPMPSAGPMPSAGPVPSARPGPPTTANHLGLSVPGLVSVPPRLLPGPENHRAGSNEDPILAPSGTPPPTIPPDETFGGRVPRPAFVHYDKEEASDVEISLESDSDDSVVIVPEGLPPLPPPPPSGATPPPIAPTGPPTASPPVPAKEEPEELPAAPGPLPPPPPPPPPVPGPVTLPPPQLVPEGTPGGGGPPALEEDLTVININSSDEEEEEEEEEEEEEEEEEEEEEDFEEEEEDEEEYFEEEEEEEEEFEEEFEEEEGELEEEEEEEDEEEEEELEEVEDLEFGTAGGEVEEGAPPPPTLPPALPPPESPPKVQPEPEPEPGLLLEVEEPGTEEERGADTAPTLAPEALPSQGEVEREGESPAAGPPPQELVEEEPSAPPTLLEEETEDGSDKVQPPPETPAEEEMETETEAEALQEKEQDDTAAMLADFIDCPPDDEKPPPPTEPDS
UniProt Q9BZL6: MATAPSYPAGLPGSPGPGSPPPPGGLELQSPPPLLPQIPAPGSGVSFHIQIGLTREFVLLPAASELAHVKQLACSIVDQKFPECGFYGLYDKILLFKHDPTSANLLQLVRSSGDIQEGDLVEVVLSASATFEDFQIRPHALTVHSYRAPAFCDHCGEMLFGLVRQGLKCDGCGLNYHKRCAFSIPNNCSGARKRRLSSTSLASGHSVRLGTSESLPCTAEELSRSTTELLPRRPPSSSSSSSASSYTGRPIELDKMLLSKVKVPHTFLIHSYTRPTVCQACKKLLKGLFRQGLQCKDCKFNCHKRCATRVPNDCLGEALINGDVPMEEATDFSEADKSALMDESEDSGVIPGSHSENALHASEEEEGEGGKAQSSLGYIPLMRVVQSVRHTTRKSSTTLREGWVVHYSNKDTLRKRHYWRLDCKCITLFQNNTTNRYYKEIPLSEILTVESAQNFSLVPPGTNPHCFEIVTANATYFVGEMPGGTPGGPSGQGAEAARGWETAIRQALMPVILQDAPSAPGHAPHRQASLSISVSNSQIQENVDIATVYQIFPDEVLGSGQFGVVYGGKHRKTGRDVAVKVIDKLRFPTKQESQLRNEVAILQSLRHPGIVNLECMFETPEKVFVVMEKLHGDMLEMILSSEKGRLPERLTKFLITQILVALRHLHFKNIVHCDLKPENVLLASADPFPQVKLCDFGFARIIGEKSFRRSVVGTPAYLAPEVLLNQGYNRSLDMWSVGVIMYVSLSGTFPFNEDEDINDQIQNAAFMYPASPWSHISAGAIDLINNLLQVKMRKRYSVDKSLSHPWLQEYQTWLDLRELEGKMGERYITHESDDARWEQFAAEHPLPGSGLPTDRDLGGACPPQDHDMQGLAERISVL
UniProt Q7Z6M4: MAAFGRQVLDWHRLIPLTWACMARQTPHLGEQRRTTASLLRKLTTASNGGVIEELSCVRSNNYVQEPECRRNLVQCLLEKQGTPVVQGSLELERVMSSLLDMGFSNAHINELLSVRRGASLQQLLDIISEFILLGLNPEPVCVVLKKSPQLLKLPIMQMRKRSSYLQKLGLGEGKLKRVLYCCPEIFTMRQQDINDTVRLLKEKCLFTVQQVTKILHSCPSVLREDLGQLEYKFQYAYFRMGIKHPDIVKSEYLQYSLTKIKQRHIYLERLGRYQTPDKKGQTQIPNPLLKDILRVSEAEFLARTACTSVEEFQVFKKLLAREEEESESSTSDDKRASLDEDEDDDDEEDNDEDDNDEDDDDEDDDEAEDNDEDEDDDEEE
UniProt Q99613, whole entry, looked up: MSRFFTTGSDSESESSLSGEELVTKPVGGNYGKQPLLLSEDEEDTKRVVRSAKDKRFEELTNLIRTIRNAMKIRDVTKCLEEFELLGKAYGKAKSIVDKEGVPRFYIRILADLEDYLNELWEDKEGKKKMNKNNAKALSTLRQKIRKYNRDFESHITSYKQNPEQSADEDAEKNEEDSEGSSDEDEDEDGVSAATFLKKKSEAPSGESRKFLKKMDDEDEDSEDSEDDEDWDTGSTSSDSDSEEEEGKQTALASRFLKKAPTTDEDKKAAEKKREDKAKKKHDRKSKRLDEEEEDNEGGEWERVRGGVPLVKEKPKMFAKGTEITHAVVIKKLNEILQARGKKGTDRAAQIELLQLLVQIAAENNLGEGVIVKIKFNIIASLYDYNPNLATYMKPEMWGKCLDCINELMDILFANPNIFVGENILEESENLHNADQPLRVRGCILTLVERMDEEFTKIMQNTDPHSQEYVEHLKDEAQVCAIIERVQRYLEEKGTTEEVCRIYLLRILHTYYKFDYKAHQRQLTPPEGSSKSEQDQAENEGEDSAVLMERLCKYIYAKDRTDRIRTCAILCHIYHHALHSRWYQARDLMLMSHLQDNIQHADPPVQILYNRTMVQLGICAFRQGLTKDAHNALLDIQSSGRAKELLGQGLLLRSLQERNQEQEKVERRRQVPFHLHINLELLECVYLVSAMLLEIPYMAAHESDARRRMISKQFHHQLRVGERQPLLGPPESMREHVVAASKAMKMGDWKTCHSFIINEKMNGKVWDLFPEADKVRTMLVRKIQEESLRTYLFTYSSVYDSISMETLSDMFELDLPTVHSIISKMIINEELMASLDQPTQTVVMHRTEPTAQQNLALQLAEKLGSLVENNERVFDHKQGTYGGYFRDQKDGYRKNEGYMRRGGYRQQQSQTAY

Compound: Nc1nc2c(ncn2[C@@H]2O[C@H](COP(=O)(O)OP(=O)(O)OP(=O)(O)O)[C@@H](O)[C@H]2O)c(=O)[nH]1 [guanosine triphosphate]
Assay: NP40-soluble protein abundance relative to vehicle (solubility fold change) (ratio); higher = more soluble protein in presence of GTP
Method in brief: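 Across three independent experiments, values are fold changes against the detergent-processed vehicle for each replicate, based on vsn-normalised intensities. The samples were Jurkat crude lysate treated with eight concentrations (0.1 to 10 mM) for 10 min at room temperature and then 3 min at 37 °C. Lysate was solubilised with 0.8% NP40 and benzonase, ultracentrifuged, and the supernatant analysed by TMT-labelled LC-MS/MS.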

Target	NP40-soluble protein abundance (concentration: 0.1mM)	NP40-soluble protein abundance (concentration: 0.5mM)	NP40-soluble protein abundance (concentration: 1mM)	NP40-soluble protein abundance (concentration: 2mM)	NP40-soluble protein abundance (concentration: 4mM)	NP40-soluble protein abundance (concentration: 6mM)	NP40-soluble protein abundance (concentration: 8mM)	NP40-soluble protein abundance (concentration: 10mM)
C9J9P8 and related entries (UniProt Q969M7)	0.98 ± 0.064	0.912 ± 0.049	1.04 ± 0.11	0.983 ± 0.093	0.97 ± 0.084	0.997 ± 0.05	0.937 ± 0.16	1.03 ± 0.11
A8MUS3 and related entries (UniProt P62750)	0.928 ± 0.051	0.943 ± 0.041	1.07 ± 0.13	1.01 ± 0.14	0.946 ± 0.19	0.891 ± 0.17	0.773 ± 0.18	0.96 ± 0.21
B5MDG7 and related entries (UniProt Q9P0W2)	0.99 ± 0.17	1.01 ± 0.081	1.17 ± 0.15	1.21 ± 0.075	1.19 ± 0.2	1.3 ± 0.26	1.29 ± 0.35	1.4 ± 0.48
C9JYN0 and related entries (UniProt Q16563)	0.958 ± 0.069	0.931 ± 0.084	0.919 ± 0.028	0.925 ± 0.079	0.929 ± 0.045	0.905 ± 0.062	0.836 ± 0.083	0.895 ± 0.073
C9J0Q5 and related entries (UniProt Q9Y618)	1.04 ± 0.012	1.007 ± 0.0023	1.05 ± 0.055	1.04 ± 0.047	1.06 ± 0.079	1.06 ± 0.044	1.14 ± 0.13	1.1 ± 0.15
B7Z2R7 and related entries (UniProt Q5T8D3)	0.939 ± 0.099	1.01 ± 0.1	0.992 ± 0.066	0.979 ± 0.098	0.994 ± 0.07	0.98 ± 0.068	0.999 ± 0.064	0.998 ± 0.07
C9JM75 and related entries (UniProt Q6P087)	1.09 ± 0.063	1.14 ± 0.025	1.09 ± 0.076	1.19 ± 0.089	1.24 ± 0.061	1.23 ± 0.13	1.22 ± 0.036	1.23 ± 0.041
C9J6P4 and related entries (UniProt Q7Z2W4)	1 ± 0.014	1.06 ± 0.022	1.03 ± 0.051	1.04 ± 0.021	1.05 ± 0.015	1.05 ± 0.012	1.07 ± 0.043	1.07 ± 0.032
C9J6A7 and related entries (UniProt Q96AT9)	0.879 ± 0.071	0.921 ± 0.18	0.903 ± 0.07	0.883 ± 0.19	0.82 ± 0.11	0.867 ± 0.15	0.817 ± 0.09	0.901 ± 0.16
ZNF316 (UniProt A6NFI3)	1.05 ± 0.065	1.04 ± 0.12	1.02 ± 0.023	0.961 ± 0.034	0.939 ± 0.073	0.96 ± 0.12	1.07 ± 0.012	1.02 ± 0.042
D6RER5 and related entries (UniProt Q9NVA2)	1.04 ± 0.12	1.03 ± 0.12	1.01 ± 0.095	1.02 ± 0.064	1.04 ± 0.11	0.97 ± 0.084	1.04 ± 0.11	0.981 ± 0.1
B4E0Y9 and related entries (UniProt Q9P289)	0.959 ± 0.021	0.959 ± 0.021	0.953 ± 0.052	0.937 ± 0.074	0.931 ± 0.046	0.946 ± 0.028	0.95 ± 0.033	0.942 ± 0.071
D6RA71 and related entries (UniProt P78317)	0.998 ± 0.076	0.958 ± 0.087	0.951 ± 0.11	0.831 ± 0.069	0.941 ± 0.26	0.949 ± 0.18	0.881 ± 0.096	1.02 ± 0.14
A6NIW2 and related entries (UniProt Q5JSL3)	1.06 ± 0.06	1.11 ± 0.12	1.03 ± 0.1	1.02 ± 0.13	1.05 ± 0.11	1.01 ± 0.12	1.01 ± 0.065	1.02 ± 0.081
E5RFH6 and related entries (UniProt P34913)	0.994 ± 0.045	0.986 ± 0.063	0.966 ± 0.05	0.931 ± 0.051	0.901 ± 0.045	0.922 ± 0.032	0.893 ± 0.031	0.893 ± 0.022
A8MU27 and related entries (UniProt P55854)	0.988 ± 0.035	0.957 ± 0.023	1.1 ± 0.06	0.983 ± 0.015	0.987 ± 0.024	1.07 ± 0.032	1.09 ± 0.053	1.12 ± 0.057
C9JFV4 and related entries (UniProt Q8IZL8)	1.03 ± 0.081	1.02 ± 0.023	1.09 ± 0.021	1.22 ± 0.098	1.24 ± 0.13	1.19 ± 0.1	1.28 ± 0.18	1.35 ± 0.15
B4DTS2 and related entries (UniProt Q9BZL6)	1.02 ± 0.021	1.04 ± 0.034	0.992 ± 0.053	1.02 ± 0.055	1 ± 0.059	0.97 ± 0.031	0.946 ± 0.045	0.946 ± 0.033
B8ZZD4 and related entries (UniProt Q86VP1)	1.01 ± 0.025	0.993 ± 0.064	0.98 ± 0.012	0.985 ± 0.022	0.993 ± 0.06	0.983 ± 0.016	0.982 ± 0.026	0.952 ± 0.018
E5RGN3 and related entries (UniProt O00244)	0.855 ± 0.11	0.884 ± 0.083	1 ± 0.14	1 ± 0.1	0.887 ± 0.053	0.988 ± 0.067	0.866 ± 0.11	1.04 ± 0.13
B4DIG0 and related entries (UniProt P30305)	1.04 ± 0.13	1 ± 0.014	0.98 ± 0.1	0.994 ± 0.06	1 ± 0.17	0.961 ± 0.11	1.02 ± 0.011	0.962 ± 0.035
B4DP61 and related entries (UniProt Q16637+E7EQZ4+B4DP61)	1.06 ± 0.032	1.08 ± 0.076	1.18 ± 0.26	1.22 ± 0.19	1.24 ± 0.21	1.25 ± 0.23	1.28 ± 0.24	1.21 ± 0.29
C9JDQ1 and related entries (UniProt Q13724)	1.05 ± 0.021	1.04 ± 0.061	0.961 ± 0.018	0.995 ± 0.083	0.989 ± 0.038	0.978 ± 0.057	0.936 ± 0.024	0.9 ± 0.097
B1AJQ6 and related entries (UniProt Q86Y82)	0.895 ± 0.028	0.895 ± 0.064	0.958 ± 0.021	0.931 ± 0.069	0.955 ± 0.068	0.995 ± 0.048	0.989 ± 0.15	1.06 ± 0.054
B4DKD5 and related entries (UniProt Q7Z6M4)	1.1 ± 0.28	1.16 ± 0.23	1.1 ± 0.13	1.1 ± 0.22	1.1 ± 0.25	1.16 ± 0.19	1.07 ± 0.22	1.19 ± 0.3
B5ME19 and related entries (UniProt Q99613+B5ME19)	1.02 ± 0.077	1.01 ± 0.05	1.02 ± 0.077	1.08 ± 0.14	1.22 ± 0.24	1.32 ± 0.28	1.5 ± 0.32	1.68 ± 0.37

Single records, from the list above. Order of values: NP40-soluble protein abundance (concentration: 0.1mM)	NP40-soluble protein abundance (concentration: 0.5mM)	NP40-soluble protein abundance (concentration: 1mM)	NP40-soluble protein abundance (concentration: 2mM)	NP40-soluble protein abundance (concentration: 4mM)	NP40-soluble protein abundance (concentration: 6mM)	NP40-soluble protein abundance (concentration: 8mM)	NP40-soluble protein abundance (concentration: 10mM)
B1AJQ6 and related entries (UniProt Q86Y82) in the list: 0.895 ± 0.028	0.895 ± 0.064	0.958 ± 0.021	0.931 ± 0.069	0.955 ± 0.068	0.995 ± 0.048	0.989 ± 0.15	1.06 ± 0.054
E5RFH6 and related entries (UniProt P34913) in the list: 0.994 ± 0.045	0.986 ± 0.063	0.966 ± 0.05	0.931 ± 0.051	0.901 ± 0.045	0.922 ± 0.032	0.893 ± 0.031	0.893 ± 0.022
